Here are results for two sequences from US20060084618.

Chains of the proteins cited; added tags and fusions are not shown. Lines headed by an entry give the natural chain unless they say otherwise; changes in a name come on top. A line that says so, or that is headed by a name, gives the form on record, which may keep a tag or linker.
UniProt O00482: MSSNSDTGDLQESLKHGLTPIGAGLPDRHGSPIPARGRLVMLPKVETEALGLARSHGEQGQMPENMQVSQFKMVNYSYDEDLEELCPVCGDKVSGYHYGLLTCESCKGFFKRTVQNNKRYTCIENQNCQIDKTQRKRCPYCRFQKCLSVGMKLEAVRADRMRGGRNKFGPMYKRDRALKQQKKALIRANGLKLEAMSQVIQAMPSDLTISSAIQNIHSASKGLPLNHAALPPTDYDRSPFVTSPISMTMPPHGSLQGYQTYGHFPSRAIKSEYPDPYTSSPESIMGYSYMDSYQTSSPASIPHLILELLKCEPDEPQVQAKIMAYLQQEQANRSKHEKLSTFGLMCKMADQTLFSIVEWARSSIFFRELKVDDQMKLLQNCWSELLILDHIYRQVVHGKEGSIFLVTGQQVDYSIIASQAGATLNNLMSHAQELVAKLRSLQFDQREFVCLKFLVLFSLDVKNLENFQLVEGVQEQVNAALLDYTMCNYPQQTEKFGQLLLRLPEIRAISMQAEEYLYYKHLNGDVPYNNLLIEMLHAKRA
PPARγ/RXRα heterodimer (Homo sapiens), one chain, as listed by the source, chain 1 of 2: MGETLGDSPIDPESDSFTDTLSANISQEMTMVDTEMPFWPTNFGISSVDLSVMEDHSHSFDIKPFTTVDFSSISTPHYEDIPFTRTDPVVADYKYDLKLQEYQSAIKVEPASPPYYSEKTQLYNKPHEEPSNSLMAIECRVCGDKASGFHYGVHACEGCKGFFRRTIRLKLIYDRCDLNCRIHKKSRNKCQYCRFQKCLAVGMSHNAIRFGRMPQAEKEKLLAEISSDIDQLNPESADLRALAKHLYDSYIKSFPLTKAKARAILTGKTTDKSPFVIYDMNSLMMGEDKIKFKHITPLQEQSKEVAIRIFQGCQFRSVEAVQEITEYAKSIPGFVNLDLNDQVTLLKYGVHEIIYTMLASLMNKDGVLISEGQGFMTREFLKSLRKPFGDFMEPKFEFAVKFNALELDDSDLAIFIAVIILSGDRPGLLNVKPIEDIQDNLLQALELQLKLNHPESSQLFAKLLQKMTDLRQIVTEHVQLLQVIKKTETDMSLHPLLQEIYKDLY
PPARγ/RXRα heterodimer (Homo sapiens), one chain, as listed by the source, chain 2 of 2: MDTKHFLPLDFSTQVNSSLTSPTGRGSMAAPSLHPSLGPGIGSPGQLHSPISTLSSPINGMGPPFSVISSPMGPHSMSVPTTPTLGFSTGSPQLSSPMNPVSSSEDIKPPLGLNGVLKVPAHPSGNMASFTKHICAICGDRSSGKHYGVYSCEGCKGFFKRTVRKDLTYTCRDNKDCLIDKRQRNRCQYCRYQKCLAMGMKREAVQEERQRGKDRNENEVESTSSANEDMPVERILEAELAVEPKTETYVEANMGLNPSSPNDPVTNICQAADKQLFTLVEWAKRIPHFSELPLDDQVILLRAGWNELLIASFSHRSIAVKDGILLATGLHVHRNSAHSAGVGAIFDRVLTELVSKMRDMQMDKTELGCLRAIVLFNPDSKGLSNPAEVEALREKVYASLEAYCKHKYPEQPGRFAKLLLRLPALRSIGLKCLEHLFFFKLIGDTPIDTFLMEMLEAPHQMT

One data set concerns the target LRH-1 (Homo sapiens) (UniProt O00482). Kind of data set: competition with a labelled probe. The conditions noted are these: unlabeled competitor 10x and 50x; band only slightly attenuated; synthetic protein; variant of adiponectin LRH-RE probe (-245 to -221).
Data set [1] deals with PPARγ/RXRα heterodimer (Homo sapiens). Kind of data set: competition with a labelled probe. The conditions noted are these: unlabeled competitor 10x and 50x; competing effect attenuated; protein translated in vitro; protein details: TNT T7 Quick Coupled (Promega); variant of adiponectin PPRE probe (-291 to -267).

Weaker means in comparison with the reference protein, sequence or condition of that experiment.

As to “AATAAGGGTCAACCCCTGGAAACAC (double strand) [mutated LRH-RE competitor]”, the binding result with LRH-1 (Homo sapiens) is “binds more weakly”.
For the sequence “TGGTTTTGACTTTTGTTCCATCTTC (double strand) [mutated PPRE competitor]”, the binding result in data set [1] was “binds more weakly”.
